Source: PubChem BioAssay AID504793 (Drosophila RNAi Screening Center, 2011)
The deposit covers about 23,000 reagents; this is an unselected part of those with a known target gene and a result. In the full data, 62 (0.27%) are marked active. 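Calls come from follow-up tests whose scores are not deposited, so confirmed genes may have low counts here; counts are not normalised per plate.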 Raw values vary from plate to plate and are shown uncorrected. The numbers tell different reagents against one gene apart. No sequences are given here.

- Aim: 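Genes required for cells to halt at G2/M after double-strand DNA breaks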 (primary screen)
- Cells: Drosophila S2R+ cells
- Reagents: long dsRNA against Drosophila genes, about 0.25 µg dsRNA per well
- Duration: 4 days of dsRNA, then 4 hours of drug before read-out
- Challenge: doxorubicin 0.5 µM for 4 hours to cause double-strand breaks, in cells also given a low, harmless dose of dsRNA against nbs to sensitise the assay
- Detection: 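Mitotic index as the number of phospho-histone H3-positive cells in each well following doxorubicin, given as raw counts without normalisation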
- Reading the numbers: mitotic cells: higher = more cells in mitosis, weaker G2 arrest
- Active means: 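Genes are called active only when high mitotic counts were reproduced with independent dsRNAs and mitosis was checked for delay without damage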
- Calls: active = confirmed in follow-up tests; inactive = not confirmed

Silencing of alpha-Est8 (alpha-Esterase-8) resulted in: mitotic cells, replicate 1 = 6; inactive. Knock-down of CG33093 resulted in: mitotic cells, replicate 1 = 7; inactive. CG1690 scored mitotic cells, replicate 1 = 6; inactive. CG2129 #1 gave mitotic cells, replicate 1 = 6; inactive. For CG2129 #2, the entry reads mitotic cells, replicate 1 = 5; inactive. Duox (Dual oxidase) scored mitotic cells, replicate 1 = 8; inactive.

l(1)sc (lethal of scute) #1 scored mitotic cells, replicate 1 = 12; inactive. After knock-down of l(1)sc (lethal of scute) #2, the screen gave mitotic cells, replicate 1 = 2; inactive. Knock-down of CG2150 resulted in: mitotic cells, replicate 1 = 3; inactive. twr (twisted bristles roughened eye) scored mitotic cells, replicate 1 = 8; inactive. Knock-down of CG12842 (retired record) #1 resulted in: mitotic cells, replicate 1 = 10; inactive. For CG12842 (retired record) #2, the values are mitotic cells, replicate 1 = 4; inactive.

Against CG10953 the deposit lists mitotic cells, replicate 1 = 2; inactive. With knock-down of CG14507 #1 the results were mitotic cells, replicate 1 = 13; inactive. Knock-down of CG14507 #2 came out at: mitotic cells, replicate 1 = 10; inactive.
